Publication PMC7862700
The list shows a part of the results, in another mix than the full data. For part of these data: At the low end of the ranking the order means little. This is one part of the list. For part of these data: The exact form of the protein is not confirmed.

The chains behind the UniProt entries cited, without tags or fusion partners. Where a name states a change or a piece, a line headed by the entry shows the natural chain unless it says otherwise.
UniProt P32519: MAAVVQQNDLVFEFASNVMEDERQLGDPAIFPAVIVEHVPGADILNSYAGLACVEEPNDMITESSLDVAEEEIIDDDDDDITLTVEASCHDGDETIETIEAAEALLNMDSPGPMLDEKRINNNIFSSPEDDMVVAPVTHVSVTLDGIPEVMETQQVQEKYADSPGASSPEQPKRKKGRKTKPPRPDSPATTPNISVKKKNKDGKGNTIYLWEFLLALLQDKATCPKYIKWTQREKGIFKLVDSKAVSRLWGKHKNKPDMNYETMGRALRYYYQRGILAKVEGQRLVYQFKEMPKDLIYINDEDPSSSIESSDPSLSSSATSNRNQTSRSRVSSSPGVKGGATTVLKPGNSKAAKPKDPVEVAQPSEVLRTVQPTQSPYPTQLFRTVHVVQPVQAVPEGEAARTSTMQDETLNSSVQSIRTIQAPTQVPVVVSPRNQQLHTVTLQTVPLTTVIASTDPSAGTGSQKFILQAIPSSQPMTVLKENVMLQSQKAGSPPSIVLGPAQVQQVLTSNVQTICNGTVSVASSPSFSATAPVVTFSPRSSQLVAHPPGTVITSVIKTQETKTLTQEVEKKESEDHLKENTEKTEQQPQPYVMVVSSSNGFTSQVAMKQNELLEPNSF
UniProt P50549: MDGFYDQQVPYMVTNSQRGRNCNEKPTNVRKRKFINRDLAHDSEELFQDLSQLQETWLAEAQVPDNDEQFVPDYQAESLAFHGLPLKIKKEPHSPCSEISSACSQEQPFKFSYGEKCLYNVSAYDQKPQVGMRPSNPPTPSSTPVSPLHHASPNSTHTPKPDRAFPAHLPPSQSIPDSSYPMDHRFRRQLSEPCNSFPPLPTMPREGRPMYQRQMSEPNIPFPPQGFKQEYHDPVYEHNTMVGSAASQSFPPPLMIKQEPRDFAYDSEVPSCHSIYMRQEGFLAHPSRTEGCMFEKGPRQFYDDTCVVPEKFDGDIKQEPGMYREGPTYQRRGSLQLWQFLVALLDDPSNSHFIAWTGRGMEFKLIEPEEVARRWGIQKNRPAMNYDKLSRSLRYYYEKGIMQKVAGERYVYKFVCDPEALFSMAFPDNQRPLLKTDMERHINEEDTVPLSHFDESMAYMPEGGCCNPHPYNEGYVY

Key:
Test in all cases: DAPPL (digital affinity profiling via proximity ligation, sequencing)
Conditions in all cases: 10 mM Tris-HCl pH 7.5, 50 mM NaCl, 1 mM DTT, 4% glycerol, room temperature, 30 min; GST-TFs on glutathione beads, 16-mer random dsDNA library, 0.1% …; high values mean tight binding; double strand, one strand shown; scale: fold enrichment (6-mer frequency, TF over GST control)
ERG = biological target: T1, ERG (UniProt P11308)
T1 sequence: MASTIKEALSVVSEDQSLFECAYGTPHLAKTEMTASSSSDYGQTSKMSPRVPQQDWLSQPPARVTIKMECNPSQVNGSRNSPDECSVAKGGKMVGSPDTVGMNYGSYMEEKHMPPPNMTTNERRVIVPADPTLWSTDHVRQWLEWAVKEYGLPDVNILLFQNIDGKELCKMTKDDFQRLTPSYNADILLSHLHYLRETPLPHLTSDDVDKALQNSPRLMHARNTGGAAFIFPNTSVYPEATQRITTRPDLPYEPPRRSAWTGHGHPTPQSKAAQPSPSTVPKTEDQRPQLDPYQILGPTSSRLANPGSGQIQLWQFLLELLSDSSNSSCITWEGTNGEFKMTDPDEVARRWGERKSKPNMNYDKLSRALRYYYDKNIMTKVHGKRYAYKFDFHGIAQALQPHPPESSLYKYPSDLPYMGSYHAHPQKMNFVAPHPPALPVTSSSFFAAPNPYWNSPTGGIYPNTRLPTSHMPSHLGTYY

ELF1 = ELF1 (UniProt P32519)
ELK4 = biological target: T2, ELK4 (UniProt P28324-2)
T2 sequence: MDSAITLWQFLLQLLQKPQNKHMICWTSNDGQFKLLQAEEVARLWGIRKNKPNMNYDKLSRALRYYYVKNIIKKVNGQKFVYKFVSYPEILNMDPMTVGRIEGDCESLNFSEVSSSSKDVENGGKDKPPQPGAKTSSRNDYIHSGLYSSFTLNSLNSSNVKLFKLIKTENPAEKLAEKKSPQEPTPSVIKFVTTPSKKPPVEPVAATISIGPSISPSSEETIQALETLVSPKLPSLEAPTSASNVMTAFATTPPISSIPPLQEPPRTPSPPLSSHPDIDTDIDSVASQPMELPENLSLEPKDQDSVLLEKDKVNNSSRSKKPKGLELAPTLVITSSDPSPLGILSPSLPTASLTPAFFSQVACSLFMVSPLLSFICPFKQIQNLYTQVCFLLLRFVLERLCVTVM

ETV4 = biological target: T3, ETV4 (UniProt P43268)
T3 sequence: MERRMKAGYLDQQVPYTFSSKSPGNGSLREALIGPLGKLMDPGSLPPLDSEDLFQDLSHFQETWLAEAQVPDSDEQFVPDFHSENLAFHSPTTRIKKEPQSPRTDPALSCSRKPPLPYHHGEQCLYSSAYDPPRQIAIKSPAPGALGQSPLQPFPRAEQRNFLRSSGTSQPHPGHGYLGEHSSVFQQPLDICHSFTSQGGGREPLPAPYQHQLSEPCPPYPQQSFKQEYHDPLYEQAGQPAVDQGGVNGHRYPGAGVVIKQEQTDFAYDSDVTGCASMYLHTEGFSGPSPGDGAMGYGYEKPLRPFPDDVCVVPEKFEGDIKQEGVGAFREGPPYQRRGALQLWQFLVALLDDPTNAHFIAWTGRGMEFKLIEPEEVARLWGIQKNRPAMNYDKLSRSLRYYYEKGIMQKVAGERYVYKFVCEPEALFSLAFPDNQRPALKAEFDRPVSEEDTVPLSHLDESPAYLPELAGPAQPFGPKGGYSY

ETV1 = ETV1 (UniProt P50549)
ERF = biological target: T4, ERF (UniProt P50548)
T4 sequence: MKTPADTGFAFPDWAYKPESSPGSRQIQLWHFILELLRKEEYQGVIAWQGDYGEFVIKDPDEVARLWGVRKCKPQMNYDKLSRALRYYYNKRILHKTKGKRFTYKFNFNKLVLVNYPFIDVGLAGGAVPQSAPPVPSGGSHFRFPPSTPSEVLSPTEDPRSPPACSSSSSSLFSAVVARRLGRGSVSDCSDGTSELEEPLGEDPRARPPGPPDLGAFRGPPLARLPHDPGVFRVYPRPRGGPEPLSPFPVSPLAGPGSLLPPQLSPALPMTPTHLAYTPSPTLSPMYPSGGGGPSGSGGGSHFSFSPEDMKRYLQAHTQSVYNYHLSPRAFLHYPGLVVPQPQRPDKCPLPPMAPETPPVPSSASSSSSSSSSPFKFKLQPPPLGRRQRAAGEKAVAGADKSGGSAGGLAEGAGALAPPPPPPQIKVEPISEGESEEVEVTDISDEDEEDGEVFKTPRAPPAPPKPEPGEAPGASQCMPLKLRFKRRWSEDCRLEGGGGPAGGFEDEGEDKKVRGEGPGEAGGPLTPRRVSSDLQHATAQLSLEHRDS

Sequence | binding signal (ERG) | binding signal (ELF1) | binding signal (ELK4) | binding signal (ETV4) | binding signal (ETV1) | binding signal (ERF)
AACGTG | 0.378 | 0.387 | 0.419 | 0.354 | 0.371 | 0.416
GAGCCT | 0.799 | 0.868 | 0.901 | 0.861 | 0.91 | 0.866
CCGTGT | 0.491 | 0.479 | 0.586 | 0.516 | 0.513 | 0.479
GGCCGT | 0.433 | 0.395 | 0.438 | 0.342 | 0.38 | 0.377
CATGTG | 0.801 | 0.873 | 0.905 | 0.822 | 0.87 | 0.855
TAGGGG | 0.821 | 0.766 | 0.814 | 0.778 | 0.79 | 0.869
GAGTCA | 0.296 | 0.274 | 0.264 | 0.249 | 0.246 | 0.258
TCGTGA | 0.33 | 0.325 | 0.366 | 0.324 | 0.328 | 0.331
GCCATA | 0.879 | 0.949 | 0.853 | 0.974 | 0.94 | 0.984
CCGTCG | 0.808 | 0.781 | 0.749 | 0.706 | 0.801 | 0.801
GGCGTA | 0.707 | 0.703 | 0.675 | 0.678 | 0.68 | 0.66
TGACGT | 0.923 | 0.916 | 0.919 | 0.888 | 0.918 | 0.904
GGATAG | 0.715 | 0.729 | 0.788 | 0.735 | 0.689 | 0.739
AGACAT | 0.804 | 0.826 | 0.778 | 0.831 | 0.852 | 0.824
TCAGAA | 0.927 | 0.942 | 0.829 | 0.908 | 0.876 | 0.925
GGGTCA | 0.69 | 0.696 | 0.643 | 0.674 | 0.703 | 0.721
GGAGCA | 0.498 | 0.473 | 0.446 | 0.461 | 0.482 | 0.492
GAGAGT | 0.371 | 0.342 | 0.36 | 0.312 | 0.329 | 0.371
AGTCGT | 0.388 | 0.41 | 0.341 | 0.377 | 0.362 | 0.378
AGCGTA | 0.95 | 0.918 | 0.889 | 0.823 | 0.918 | 0.883
GGAGGT | 0.351 | 0.318 | 0.31 | 0.344 | 0.366 | 0.325
GTCGTT | 0.659 | 0.697 | 0.734 | 0.7 | 0.667 | 0.72
GAGTGA | 0.397 | 0.41 | 0.411 | 0.377 | 0.467 | 0.398

Look-ups from the results shown:
GGAGCA | binding signal (ELF1): 0.473
AGCGTA | binding signal (ETV4): 0.823
